“And” between values parts separate entries of the source, which are not always exact repeats. Equal entries are not always repeated. Among all 340,000 compounds or so, about 170 (0.05%) were called active. This list was built around the results that the source calls inconclusive (neither active nor inactive); the mix of calls is not that of the screen. Calls follow the shape of the dose curve; as a rule, active = well fitted inhibition curve with a large enough effect in the signal ratio, with a control signal flat (not every such curve was filed as active); inconclusive = small, poorly fitted or top-dose-only effect, or effect the other way, or a change in a side signal; inactive = flat fitted curve, though single readings scatter; the % refers to the signal ratio. Potencies of inconclusive entries are doubtful fits and often do not repeat.
Assay: qHTS Assay to Find Inhibitors of Chronic Active B-Cell Receptor Signaling;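 as to activity change, negative = inhibition: plate controls were basal doxycycline-induced cells for no effect and cells given 10 µM MG132 for full effect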
Conditions: ABC-DLBCL IkBa-CBG/CBR reporter, luminescence ratio (green luciferase fused to IkBa over red control in TMD8 lymphoma cells), 4 h; activity change, negative = inhibition: at 46.1 µM (top of the series) unless noted
Outline: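 Compounds up to 46 uM were incubated four hours with TMD8 cells whose green CBG68 luciferase is fused to IkappaBalpha; red CBR luminescence normalised the signal, and concentration-effect curves were fitted to fusion, red and ratio data.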
Potency is read from the fitted curve at half-maximal effect.

Row | SMILES | Potency | activity change, negative = inhibition
1 | OCCN1CCN(Cc2cc(Cl)c3cccnc3c2O)CC1 | inconclusive: 7.31 µM [cytotoxic, partial curve] | 
2 | FCCCOc1ccc(-c2nccc(-c3ccccn3)n2)cc1 |  | inconclusive: -1.21%
3 | Cc1ccc(-c2cn(C[C@H]3CC[C@@H]([C@@H]4CC[C@H](Cn5cc(-c6ccc(C)cc6)nn5)O4)O3)nn2)cc1 |  | inconclusive: -6.35%
4 | Cc1ccc(-c2cc(C(F)F)nc(NCC3CCCO3)n2)cc1 (configuration not stated) |  | inconclusive: -6.05%
5 | CCOc1ncccc1C(=O)Nc1cccc(C(=O)Nc2cccc(S(=O)(=O)CCO)c2)c1 |  | inconclusive: -22.8%
6 | COc1ccc(CCN2CN(S(=O)(=O)c3ccccc3)c3nc4ccccc4nc32)cc1 |  | inconclusive: 14.4%
7 | COc1cc(C(=O)OCC(=O)Nc2ccc(C)cc2)cc(OC)c1OC |  | inconclusive: -24.9%
8 | CCc1nc2ccccc2n1Cc1ccccc1F |  | inactive: -0.978%
9 | Cc1cc(C(=O)Nc2sc3c(c2C#N)CCCC3)no1 |  | inconclusive: -98.8%
10 | CCCCCc1nnc(NC(=O)Cc2cccs2)s1 |  | inconclusive: 16.5%
11 | O=C(Nc1cccnc1)c1cn(-c2ccccc2)nc1-c1cccs1 |  | inconclusive: 1.92%
12 | NS(=O)(=O)c1ccc(Nc2nc(-c3ccc(O)cc3)cs2)cc1 |  | inconclusive: -5.38%
13 | CC(=O)c1cc2c(cc1N/C(=N/S(=O)(=O)c1ccc(F)cc1)c1ccccc1)OCO2 |  | inactive: 26.9%
14 | COc1cc(C(=O)NC2(C(F)(F)F)NC(=O)N(CCCc3ccccc3)C2=O)cc(OC)c1OC (configuration not stated) |  | inconclusive: 13.1%
15 | Brc1ccccc1-c1nnc(SCc2nc3ccccc3s2)o1 |  | inconclusive: -1.1%
16 | Cc1noc(C)c1COC(=O)CCc1ccc(S(=O)(=O)N2CCCCC2)cc1 | inconclusive: 0.251 µM [falling, full curve, poor fit] | 
17 | O=C(NC1CCCCC1)c1ccc2c(c1)N(Cc1cccc(Cl)c1)C(=O)c1ccccc1S2=O (configuration not stated) |  | inconclusive: -0.162%
18 | O=C(O)CCCCCCC1C(=O)NC(=O)N1CCC(O)C1CCCCC1 (configuration not stated) |  | inconclusive: -51.4%
19 | Cc1ccc(S(=O)(=O)NC(=O)Nc2cccc([N+](=O)[O-])c2)cc1 |  | inactive: -2.13%
20 | Nc1c(C(=O)CSc2n[nH]c(-c3ccccc3)n2)c(=O)[nH]c(=O)n1C1CC1 |  | inactive: 0.491%
21 | CCN(CC)CCN(C(=O)CCS(=O)(=O)c1ccccc1)c1nc2cc(C)cc(C)c2s1 |  | inactive: 8.26%
22 | CCc1cc(C(=O)N2CCCC(CNS(=O)(=O)c3cccs3)C2)n(C)n1 (configuration not stated) |  | inconclusive: 15.2%
23 | CCOC(=O)C1(Cc2ccccc2C)CCCN(C(=O)c2ccc(COC)o2)C1 (configuration not stated) |  | inconclusive: -1.53%
24 | COC(=O)c1ccc(N2CCN(C)CC2)c(NC(=O)COc2ccccc2Cl)c1 |  | inactive: -10.5%
25 | Cc1ccc(C(N)=O)cc1S(=O)(=O)Nc1cccc(C)c1C |  | inconclusive: -7.97%
26 | Cc1ccc(C)c(N2CCN(C(=O)c3ccccc3Br)CC2)c1 |  | inactive: 5.31%

Pulled by structure from the list above:
Row | SMILES | Potency | activity change, negative = inhibition
10 | CCCCCc1nnc(NC(=O)Cc2cccs2)s1 |  | inconclusive: 16.5%
23 | CCOC(=O)C1(Cc2ccccc2C)CCCN(C(=O)c2ccc(COC)o2)C1 (configuration not stated) |  | inconclusive: -1.53%
11 | O=C(Nc1cccnc1)c1cn(-c2ccccc2)nc1-c1cccs1 |  | inconclusive: 1.92%

Continuation:

Row | SMILES | Potency | activity change, negative = inhibition
27 | Cc1ccc(C(=O)NN2C(=O)/C(=C/c3cccn3C)SC2=S)cc1 |  | inconclusive: -9.65%
28 | Cc1ccccc1OCc1csc(N)n1 |  | inconclusive: -3.16%
29 | Cc1cccc2sc(N(Cc3cccnc3)C(=O)COc3ccccc3)nc12 |  | inconclusive: 3.64%
30 | COc1ccc(C(=O)N2CCN(c3ccccc3Cl)CC2)cc1S(=O)(=O)NC1CC1 |  | inactive: -13.7%
31 | O=C(NCCCl)C1Cc2c(ccc3ccccc23)O1 (configuration not stated) | inconclusive: 35.5 µM [falling, partial curve, poor fit] | 
32 | O=C(N/N=C/c1c[nH]c2ccccc12)c1ccccc1Cl | inconclusive: 20 µM [falling, partial curve, poor fit] | 
33 | Cc1ccc(-n2[nH]c(C)c(C=Nc3ccc(C)cn3)c2=O)cc1 |  | inconclusive: -24.4%
34 | Cc1cc(C)c(NC(=O)NC(=O)C(Cl)(Cl)Cl)c(C)c1 |  | inconclusive: -12.4%
35 | COc1ccc(-c2nc3ccccc3s2)cc1NC(C)=O |  | inconclusive: -2.4% and inconclusive: 8.39%
36 | Cc1ccc(NS(=O)(=O)c2cccs2)cc1S(=O)(=O)N1CCCCCC1 | inconclusive: 35.5 µM [rising, partial curve, poor fit] | 
37 | Cc1ccc(NC(=O)N2CCC(C(=O)Nc3ccc(C)cc3C)CC2)cc1 |  | inconclusive: 17.9%
38 | COC(=O)c1ccc(/C=N/NC(=O)c2ccc3nc[nH]c3c2)cc1 |  | inconclusive: -16.2%
39 | Cc1nn2cnnc2c(C)c1Cc1c(F)cccc1Cl |  | inconclusive: -1.13%
40 | CCCCCc1nnc(NC(=O)C2CCCO2)s1 (configuration not stated) |  | inconclusive: 0.437%
41 | Cc1cccc(CNC(=O)c2ccccc2N)c1 | inconclusive: 14.6 µM [falling, partial curve, poor fit] | 
42 | O=C(O)COc1ccc(/C=C2\SC(=Nc3ccccc3)N(c3ccccc3)C2=O)cc1 |  | inconclusive: 7.86%
43 | CCOC(=O)C1=C(c2ccccc2)NC(SCC(N)=O)=C(C#N)C1c1cccnc1 (configuration not stated) |  | inconclusive: -1.13%
44 | COc1cc(-c2nnc(COc3ccc4ccccc4c3)o2)cc(OC)c1OC |  | inconclusive: -12.7%
45 | O=C(OCc1ccccc1)C1=[N+]([O-])OC(C(=O)OCc2ccccc2)C1c1c[nH]c2ccccc12 (configuration not stated) | inconclusive: 23.1 µM [falling, single point] | 
46 | O=C(Nc1ccn(Cc2ccccc2F)n1)c1ccc(COc2cccc(Br)c2)cc1 |  | inconclusive: -2%
47 | CNC(=S)N(CCc1c(C)[nH]c2ccc(OC)cc12)Cc1ccco1 |  | inconclusive: -2.34%
48 | COc1ccc2cc1Oc1ccc(cc1)C[C@H]1c3cc(c(OC)cc3CCN1C)Oc1c(O)c(OC)cc3c1[C@H](C2)N(C)CC3 |  | inconclusive: 2.44%
49 | O=c1c2cc(Cl)ccc2[nH]c(=S)n1Cc1ccccn1 | inconclusive: 29.1 µM [falling, single point] | 
50 | COc1ccccc1N1CCN(C(=O)C(Sc2ccccc2)c2ccccc2)CC1 (configuration not stated) |  | inconclusive: 5.76%
51 | O=C(CCCl)N(Cc1nc2ccccc2c(=O)[nH]1)Cc1cccs1 |  | inactive: 2.46%
52 | CC(=O)Nc1ccc(S(=O)(=O)Nc2nc3ccccc3nc2Nc2ccc(O)c(C(=O)O)c2)cc1 |  | inconclusive: 0.309%

Row | SMILES | Potency | activity change, negative = inhibition
53 | Nc1cccc(C(=O)N/N=C/c2ccsc2)c1 | inconclusive: 31.6 µM [rising, partial curve] | 
54 | O=C(CSc1nnc(-c2ccc(Cl)cc2)c(-c2ccc(Cl)cc2)n1)NC1CCCC1 |  | inconclusive: -18.7%
55 | S=C(Nc1cccc(Cl)c1)N(CCCN1CCCC1)Cc1cccn1Cc1ccc(Cl)cc1 |  | inconclusive: -4.9%
56 | O=C(CSc1nc2ccccc2c(=O)n1-c1ccccc1)NCc1ccc2c(c1)OCO2 |  | inactive: 9.47%
57 | Oc1ccc(Nc2nc(Cl)nc(NCc3ccco3)n2)cc1 |  | inconclusive: 2.65%
58 | CCn1c(=O)c(C(=O)NNC(=O)c2ccccc2)c(O)c2ccccc21 | inconclusive: 20 µM [falling, partial curve] | 
59 | CCOC(=O)Cn1cc([N+](=O)[O-])c(OC)n1 | inconclusive: 0.259 µM [falling, partial curve, poor fit] | 
60 | O=C(CNC(=O)c1ccc(Br)o1)Nc1ccc(F)c(S(=O)(=O)N2CCOCC2)c1 | inconclusive: 18.4 µM [falling, single point] | 
61 | COc1ccc(CCN(C)C(=O)C2CCN(Cc3cccc(OC)c3OC)CC2)cc1OC | inconclusive: 6.31 µM [falling, single point] | 
62 | COc1ccc(C23CC4CC(CC(C4)C2)C3)cc1C(=O)NCCN(C)C | inconclusive: 31.6 µM [falling, partial curve, poor fit] | 
63 | O=C(NCCc1c[nH]c2ccccc12)c1cc(Cl)c2c(c1)OCO2 | inconclusive: 25.1 µM [falling, partial curve, poor fit] | 
64 | O=C(O)c1ccc2c(c1)CCC2 |  | inactive: -2.47%
65 | COc1cc(C2=CN(Cc3ccccc3)CCC2=O)cc(OC)c1OC |  | inconclusive: -1.73%
66 | CC(C)c1ccc(NC(=O)C2C3C=CC4(O3)C2C(=O)N(CCCN2CCCCC2)C4C(=O)NC2CCCCC2)cc1 (configuration not stated) |  | inconclusive: -0.957%
67 | CCn1c(=O)c(C(=O)NCCc2ccccc2)c(O)c2ccccc21 |  | inconclusive: -14.7%
68 | Nc1ncnc2c1ncn2[C@@H]1O[C@H](CNS(=O)(=O)c2cc3ccccc3s2)[C@@H](O)[C@H]1O | inconclusive: 18.4 µM [falling, single point] | 
69 | O=C(Cc1ccc(Cl)cc1)NCC(=O)N1CCCC1 | inconclusive: 5.8 µM [rising, partial curve, poor fit] | 
70 | CC(C)OC(=O)c1nnc(-c2ccccc2)nc1OC(C)C | inconclusive: 29.1 µM [falling, single point] | 
71 | Cc1ccc(S(=O)(=O)N(CC(=O)NCCC2=CCCCC2)Cc2ccccc2F)cc1 |  | inconclusive: 15%
72 | CCn1c(C)nc2cc(C(N)=O)ccc21 |  | inconclusive: -1.31%
73 | COc1cc(/C=N/NC(N)=S)ccc1OCc1ccc(C)cc1 | inconclusive: 32.6 µM [falling, partial curve, poor fit] | 
74 | O=C(Nc1ccc(S(=O)(=O)Nc2cnc3ccccc3n2)cc1)c1ccccc1Br |  | inconclusive: -15.2%
75 | COc1ccc(C(C(=O)NC2CCCC2)N(C(=O)c2snc(-c3ccc(F)cc3)c2N)c2ccccc2)cc1 (configuration not stated) |  | inconclusive: 5.63%
76 | CCOC(=O)N1CCC(NC(=O)c2oc3c(c2C)-c2[nH]ncc2CC3)CC1 | inconclusive: 29.1 µM [falling, single point] | 
77 | CC(=O)Nc1cccc(NC(=O)Nc2cccc3ccccc23)c1 | inconclusive: 0.891 µM [falling, partial curve, poor fit] | 

— PubChem BioAssay AID493014 (National Center for Advancing Translational Sciences (NCATS), 2011)
